Laboratory results as given in the supplement of paper PMC10849652.
This is one part of the list.

Protein sequences, listed by entry. Tags and fused reporters are not part of them. Lines headed by an entry give the natural chain unless they say otherwise; changes in a name come on top.
UniProt Q9UKJ5: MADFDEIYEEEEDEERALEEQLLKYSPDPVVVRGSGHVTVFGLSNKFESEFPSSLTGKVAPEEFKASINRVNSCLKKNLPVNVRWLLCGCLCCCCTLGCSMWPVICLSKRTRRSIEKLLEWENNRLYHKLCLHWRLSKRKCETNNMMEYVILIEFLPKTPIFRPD
UniProt O43633: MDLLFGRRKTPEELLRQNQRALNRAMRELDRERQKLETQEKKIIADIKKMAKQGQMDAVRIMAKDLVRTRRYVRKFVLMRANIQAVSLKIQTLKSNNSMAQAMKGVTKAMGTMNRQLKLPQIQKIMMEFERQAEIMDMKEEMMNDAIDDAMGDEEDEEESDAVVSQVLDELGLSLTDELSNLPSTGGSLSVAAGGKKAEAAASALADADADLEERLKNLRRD
UniProt Q9Y6A4: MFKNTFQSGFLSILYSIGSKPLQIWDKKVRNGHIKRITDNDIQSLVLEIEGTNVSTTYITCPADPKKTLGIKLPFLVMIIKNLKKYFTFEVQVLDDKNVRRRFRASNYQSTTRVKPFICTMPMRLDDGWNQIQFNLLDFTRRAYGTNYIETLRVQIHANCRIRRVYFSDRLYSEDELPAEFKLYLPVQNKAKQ
UniProt Q9BY43: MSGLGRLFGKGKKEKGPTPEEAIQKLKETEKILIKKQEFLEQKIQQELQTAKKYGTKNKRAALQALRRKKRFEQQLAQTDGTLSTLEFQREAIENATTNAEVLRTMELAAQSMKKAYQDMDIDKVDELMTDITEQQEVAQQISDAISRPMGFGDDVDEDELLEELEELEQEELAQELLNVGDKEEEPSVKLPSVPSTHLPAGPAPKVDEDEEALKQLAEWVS
UniProt Q9H444: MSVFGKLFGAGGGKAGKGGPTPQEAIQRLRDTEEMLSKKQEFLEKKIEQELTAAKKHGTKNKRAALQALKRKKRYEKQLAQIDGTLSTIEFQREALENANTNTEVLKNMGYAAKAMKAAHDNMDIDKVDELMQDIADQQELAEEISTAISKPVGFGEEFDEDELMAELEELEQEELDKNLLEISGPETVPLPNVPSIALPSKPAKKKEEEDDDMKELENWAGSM
UniProt Q9Y3E7, whole entry, looked up: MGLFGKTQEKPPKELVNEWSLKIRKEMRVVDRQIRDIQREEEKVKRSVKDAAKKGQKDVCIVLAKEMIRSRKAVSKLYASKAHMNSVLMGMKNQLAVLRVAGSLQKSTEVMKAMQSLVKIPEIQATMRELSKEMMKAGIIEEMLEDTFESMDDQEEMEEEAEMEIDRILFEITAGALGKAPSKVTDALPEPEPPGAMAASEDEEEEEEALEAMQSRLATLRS
UniProt P57076: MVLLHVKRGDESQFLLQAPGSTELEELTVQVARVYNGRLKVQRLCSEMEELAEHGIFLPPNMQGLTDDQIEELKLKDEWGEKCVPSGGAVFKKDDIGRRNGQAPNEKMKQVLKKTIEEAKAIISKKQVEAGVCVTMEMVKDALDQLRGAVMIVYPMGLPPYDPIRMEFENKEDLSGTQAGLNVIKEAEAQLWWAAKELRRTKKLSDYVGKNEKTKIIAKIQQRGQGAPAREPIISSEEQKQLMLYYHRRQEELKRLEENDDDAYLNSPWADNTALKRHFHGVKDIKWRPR
UniProt P41208: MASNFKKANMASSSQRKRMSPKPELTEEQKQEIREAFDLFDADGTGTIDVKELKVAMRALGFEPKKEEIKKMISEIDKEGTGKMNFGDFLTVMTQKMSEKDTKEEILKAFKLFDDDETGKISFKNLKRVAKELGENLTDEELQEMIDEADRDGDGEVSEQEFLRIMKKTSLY
UniProt Q8WUX2: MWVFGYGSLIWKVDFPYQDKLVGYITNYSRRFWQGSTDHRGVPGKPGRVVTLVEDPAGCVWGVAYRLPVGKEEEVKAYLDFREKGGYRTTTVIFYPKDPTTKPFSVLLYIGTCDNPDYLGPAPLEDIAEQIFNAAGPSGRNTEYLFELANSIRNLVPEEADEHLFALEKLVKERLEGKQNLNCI
UniProt Q12873: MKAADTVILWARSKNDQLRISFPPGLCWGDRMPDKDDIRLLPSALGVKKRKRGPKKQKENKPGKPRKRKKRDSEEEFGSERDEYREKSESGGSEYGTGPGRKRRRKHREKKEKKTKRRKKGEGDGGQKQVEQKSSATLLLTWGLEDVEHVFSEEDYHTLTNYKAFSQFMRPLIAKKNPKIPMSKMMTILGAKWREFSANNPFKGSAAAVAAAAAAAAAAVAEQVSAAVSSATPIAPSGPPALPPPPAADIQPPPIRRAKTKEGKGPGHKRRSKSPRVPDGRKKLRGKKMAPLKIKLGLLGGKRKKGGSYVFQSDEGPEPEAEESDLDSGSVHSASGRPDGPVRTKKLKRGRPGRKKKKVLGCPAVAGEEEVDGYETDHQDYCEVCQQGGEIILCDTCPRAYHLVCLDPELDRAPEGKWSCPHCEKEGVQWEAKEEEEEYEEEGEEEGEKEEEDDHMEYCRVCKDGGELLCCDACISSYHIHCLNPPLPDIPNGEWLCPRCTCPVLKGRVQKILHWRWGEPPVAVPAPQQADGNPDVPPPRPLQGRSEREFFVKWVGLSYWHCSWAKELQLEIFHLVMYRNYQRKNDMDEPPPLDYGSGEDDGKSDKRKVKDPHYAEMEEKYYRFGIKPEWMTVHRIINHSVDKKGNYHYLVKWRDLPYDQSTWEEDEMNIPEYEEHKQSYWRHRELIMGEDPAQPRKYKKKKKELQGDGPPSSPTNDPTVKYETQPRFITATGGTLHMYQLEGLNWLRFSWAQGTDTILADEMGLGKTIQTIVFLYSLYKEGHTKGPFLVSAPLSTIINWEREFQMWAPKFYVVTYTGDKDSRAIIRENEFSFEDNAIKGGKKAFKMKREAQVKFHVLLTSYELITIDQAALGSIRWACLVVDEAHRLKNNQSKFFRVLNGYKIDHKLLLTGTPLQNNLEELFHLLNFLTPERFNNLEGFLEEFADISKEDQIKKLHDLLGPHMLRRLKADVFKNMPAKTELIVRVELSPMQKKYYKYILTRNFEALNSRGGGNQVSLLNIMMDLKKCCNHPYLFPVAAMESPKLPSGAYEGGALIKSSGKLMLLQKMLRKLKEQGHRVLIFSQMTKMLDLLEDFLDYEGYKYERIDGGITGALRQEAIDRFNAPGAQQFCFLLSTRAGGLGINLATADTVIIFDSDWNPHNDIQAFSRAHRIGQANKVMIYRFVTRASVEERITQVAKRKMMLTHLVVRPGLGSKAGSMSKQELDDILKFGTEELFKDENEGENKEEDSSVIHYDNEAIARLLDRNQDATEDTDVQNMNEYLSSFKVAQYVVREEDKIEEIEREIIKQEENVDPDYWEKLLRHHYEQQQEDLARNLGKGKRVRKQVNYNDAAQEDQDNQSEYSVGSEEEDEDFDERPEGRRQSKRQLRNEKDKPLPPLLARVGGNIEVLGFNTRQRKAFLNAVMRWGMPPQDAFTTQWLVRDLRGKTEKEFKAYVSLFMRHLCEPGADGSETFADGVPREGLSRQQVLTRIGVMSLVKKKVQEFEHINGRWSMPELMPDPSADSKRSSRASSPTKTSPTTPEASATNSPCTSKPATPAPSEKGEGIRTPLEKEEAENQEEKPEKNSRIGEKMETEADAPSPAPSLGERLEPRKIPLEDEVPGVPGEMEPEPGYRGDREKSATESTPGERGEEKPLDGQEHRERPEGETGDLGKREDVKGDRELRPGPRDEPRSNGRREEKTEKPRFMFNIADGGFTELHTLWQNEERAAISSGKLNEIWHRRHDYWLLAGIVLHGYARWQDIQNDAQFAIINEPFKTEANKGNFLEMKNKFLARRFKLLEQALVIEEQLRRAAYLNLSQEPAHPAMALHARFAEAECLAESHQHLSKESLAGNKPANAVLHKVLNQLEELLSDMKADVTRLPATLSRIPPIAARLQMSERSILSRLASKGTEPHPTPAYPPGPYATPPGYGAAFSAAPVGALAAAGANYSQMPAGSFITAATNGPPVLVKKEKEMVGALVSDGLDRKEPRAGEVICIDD
UniProt Q9Y281, whole entry, looked up: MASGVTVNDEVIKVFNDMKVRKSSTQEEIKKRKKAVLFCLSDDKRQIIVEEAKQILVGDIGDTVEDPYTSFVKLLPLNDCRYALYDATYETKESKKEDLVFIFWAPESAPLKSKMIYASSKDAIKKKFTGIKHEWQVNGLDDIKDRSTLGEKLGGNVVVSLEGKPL
UniProt O96017, whole entry, looked up: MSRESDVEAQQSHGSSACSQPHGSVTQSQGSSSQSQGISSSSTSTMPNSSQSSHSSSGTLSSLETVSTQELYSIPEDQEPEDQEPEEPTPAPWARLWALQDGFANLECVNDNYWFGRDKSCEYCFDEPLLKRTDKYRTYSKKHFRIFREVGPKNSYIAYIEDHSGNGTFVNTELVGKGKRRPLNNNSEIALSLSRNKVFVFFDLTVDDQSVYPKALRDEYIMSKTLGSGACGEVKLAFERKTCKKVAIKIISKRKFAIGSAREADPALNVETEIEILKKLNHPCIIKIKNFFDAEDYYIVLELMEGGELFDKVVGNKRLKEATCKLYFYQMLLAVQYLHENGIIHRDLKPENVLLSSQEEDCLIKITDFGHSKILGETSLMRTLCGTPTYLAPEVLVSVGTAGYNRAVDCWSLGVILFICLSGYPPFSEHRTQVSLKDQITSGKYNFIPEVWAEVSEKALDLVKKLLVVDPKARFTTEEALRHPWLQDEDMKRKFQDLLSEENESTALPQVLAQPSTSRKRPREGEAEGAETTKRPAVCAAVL
UniProt P23528, whole entry, looked up: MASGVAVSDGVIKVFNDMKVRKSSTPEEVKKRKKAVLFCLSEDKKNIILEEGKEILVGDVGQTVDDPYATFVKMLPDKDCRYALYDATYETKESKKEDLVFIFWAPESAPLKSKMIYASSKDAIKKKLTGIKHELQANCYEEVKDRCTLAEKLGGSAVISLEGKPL
UniProt Q9H5V8, whole entry, looked up: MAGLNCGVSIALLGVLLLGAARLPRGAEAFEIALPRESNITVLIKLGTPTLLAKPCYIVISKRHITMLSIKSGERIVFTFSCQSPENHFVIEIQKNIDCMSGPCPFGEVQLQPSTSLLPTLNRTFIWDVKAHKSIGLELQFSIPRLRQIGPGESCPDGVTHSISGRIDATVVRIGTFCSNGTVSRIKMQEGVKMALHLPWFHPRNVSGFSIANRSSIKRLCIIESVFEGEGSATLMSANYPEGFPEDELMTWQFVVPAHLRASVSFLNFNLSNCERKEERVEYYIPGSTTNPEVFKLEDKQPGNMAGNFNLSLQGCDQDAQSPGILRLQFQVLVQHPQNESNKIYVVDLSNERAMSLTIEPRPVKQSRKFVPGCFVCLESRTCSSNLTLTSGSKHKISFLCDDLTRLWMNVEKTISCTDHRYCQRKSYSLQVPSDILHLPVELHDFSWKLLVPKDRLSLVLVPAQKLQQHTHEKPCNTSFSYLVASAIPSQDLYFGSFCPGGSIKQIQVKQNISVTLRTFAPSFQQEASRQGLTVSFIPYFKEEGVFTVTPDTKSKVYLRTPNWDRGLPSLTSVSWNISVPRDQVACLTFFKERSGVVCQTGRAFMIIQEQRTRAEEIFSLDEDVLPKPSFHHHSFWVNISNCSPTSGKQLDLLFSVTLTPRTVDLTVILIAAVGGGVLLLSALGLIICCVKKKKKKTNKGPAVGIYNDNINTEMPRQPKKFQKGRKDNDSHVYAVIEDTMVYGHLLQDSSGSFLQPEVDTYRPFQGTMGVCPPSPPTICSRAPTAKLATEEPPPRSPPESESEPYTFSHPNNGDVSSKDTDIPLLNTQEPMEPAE
UniProt Q9UFW8: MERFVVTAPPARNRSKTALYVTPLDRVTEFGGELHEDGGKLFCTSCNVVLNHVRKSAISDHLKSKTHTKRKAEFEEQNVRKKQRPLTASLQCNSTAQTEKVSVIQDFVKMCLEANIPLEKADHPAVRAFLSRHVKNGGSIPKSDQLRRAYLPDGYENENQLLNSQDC
UniProt Q00536: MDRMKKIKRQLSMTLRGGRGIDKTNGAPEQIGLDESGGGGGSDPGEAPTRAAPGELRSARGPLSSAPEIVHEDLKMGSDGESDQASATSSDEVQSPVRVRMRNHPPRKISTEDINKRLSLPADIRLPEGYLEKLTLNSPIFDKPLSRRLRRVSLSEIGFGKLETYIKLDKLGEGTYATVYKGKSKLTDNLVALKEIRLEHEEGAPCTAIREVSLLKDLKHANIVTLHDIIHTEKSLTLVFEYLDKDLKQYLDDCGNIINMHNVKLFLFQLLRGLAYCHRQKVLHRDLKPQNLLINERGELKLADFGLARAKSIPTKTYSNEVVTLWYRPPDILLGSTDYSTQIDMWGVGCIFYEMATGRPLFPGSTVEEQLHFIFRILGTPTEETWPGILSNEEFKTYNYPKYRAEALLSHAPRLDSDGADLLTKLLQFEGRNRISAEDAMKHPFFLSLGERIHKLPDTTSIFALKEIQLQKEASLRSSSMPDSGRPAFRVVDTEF
UniProt Q96FF9: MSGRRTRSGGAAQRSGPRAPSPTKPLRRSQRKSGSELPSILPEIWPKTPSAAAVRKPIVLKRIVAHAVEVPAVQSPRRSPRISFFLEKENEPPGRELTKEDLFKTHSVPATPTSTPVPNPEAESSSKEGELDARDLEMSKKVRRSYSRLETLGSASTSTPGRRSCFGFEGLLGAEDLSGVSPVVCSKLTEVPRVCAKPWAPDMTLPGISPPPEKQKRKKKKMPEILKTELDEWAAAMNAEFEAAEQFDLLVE

Compound: O=C(O)c1ccc2c(c1)nc(Nc1cccc(Cl)c1)c1ccncc12 [silmitasertib]
Assay: log2 fold change, soluble protein after heating vs DMSO (PISA); higher = thermal stabilisation; K562 cells, 10 uM, 30 min; active = over 0.2 and 3.5 SD of the protein, either way, in both replicates (recomputed)
Method in brief: (§1)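 Quantification of soluble protein used TMTpro 16plex LC-MS/MS, with channel sums equalised. Samples were the supernatant after 21,000xg for 90 min of pooled aliquots from K562 cells (2×10^6 cells/mL) treated with 10 μM compound for 30 min, heated for 3 min over 48°C-58°C, and extracted in PBS with 0.5% NP-40 at 4°C. Values, from duplicates, describe thermal stability against control samples on a log2 fold-change scale.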

Target | log2 fold change
CHIC2 (UniProt Q9UKJ5) | inactive: 0.076
CFDP1 (UniProt Q9UEE9) | inactive: -0.015
CHMP2A (UniProt O43633) | inactive: -0.014
CHD4 isoform 2 (UniProt Q14839) | inactive: 0.099
CEP76 (UniProt Q8TAP6) | inactive: -0.012
CDK5RAP3 isoform 4 (UniProt Q96JB5) | inactive: -0.004
CHKA (UniProt P35790) | inactive: 0.013
CDC73 (UniProt Q6P1J9) | inactive: 0.088
CHCHD3 (UniProt Q9NX63) | inactive: -0.021
CDKAL1 (UniProt Q5VV42) | inactive: 0.014
CDK13 (UniProt Q14004) | inactive: -0.018
CFAP20 (UniProt Q9Y6A4) | inactive: 0.046
CHD6 (UniProt Q8TD26) | inactive: 0.405
CHMP4A isoform 2 (UniProt Q9BY43) | inactive: 0.007
CHMP4B (UniProt Q9H444) | inactive: -0.016
CDK11B (UniProt P21127) | inactive: -0.061
CHMP3 (UniProt Q9Y3E7) | inactive: 0.018
CFAP298 (UniProt P57076) | inactive: 0.08
CETN2 (UniProt P41208) | inactive: -0.028
CHAC2 (UniProt Q8WUX2) | inactive: 0.022

Target | log2 fold change
CETN3 (UniProt O15182) | inactive: 0.032
CHD3 isoform 3 (UniProt Q12873) | inactive: 0.154
CFL2 (UniProt Q9Y281) | inactive: 0.065
CHEK2 isoform 9 (UniProt O96017) | inactive: 0.017
CFL1 (UniProt P23528) | inactive: -0.023
CDCP1 (UniProt Q9H5V8) | inactive: -0.008
CDS2 (UniProt O95674) | inactive: -0.003
CDC42BPA isoform 6 (UniProt Q5VT25) | inactive: 0.11
CEPT1 (UniProt Q9Y6K0) | inactive: -0.014
CHAMP1 (UniProt Q96JM3) | inactive: -0.02
CGGBP1 (UniProt Q9UFW8) | inactive: 0.001
CDK5RAP1 (UniProt Q96SZ6) | inactive: 0.06
CERS2 (UniProt Q96G23) | inactive: -0.018
CDK16 isoform 2 (UniProt Q00536) | inactive: 0.201
CDCA5 (UniProt Q96FF9) | inactive: 0.069
CHMP4C (UniProt Q96CF2) | inactive: 0.028
CELF2 isoform 3 (UniProt O95319) | inactive: 0.051
CERS5 (UniProt Q8N5B7) | inactive: 0.056
CDCA3 (UniProt Q99618) | inactive: 0.022

Compound: O=C1NC(=O)C(c2cnc3ccccn23)=C1c1cn2c3c(cc(F)cc13)CN(C(=O)N1CCCCC1)CC2
Assay: as above
Method in brief: as §1

Target | log2 fold change
CHIC2 (UniProt Q9UKJ5) | inactive: -0.017
CFDP1 (UniProt Q9UEE9) | inactive: -0.052
CHMP2A (UniProt O43633) | inactive: -0.028
CHD4 isoform 2 (UniProt Q14839) | inactive: -0.023
CEP76 (UniProt Q8TAP6) | inactive: -0.011
CDK5RAP3 isoform 4 (UniProt Q96JB5) | inactive: -0.04
CHKA (UniProt P35790) | inactive: -0.011
CDC73 (UniProt Q6P1J9) | inactive: -0.556
CHCHD3 (UniProt Q9NX63) | inactive: -0.052
CDKAL1 (UniProt Q5VV42) | inactive: 0.077
CDK13 (UniProt Q14004) | inactive: 0.035
CFAP20 (UniProt Q9Y6A4) | inactive: 0.087
CHD6 (UniProt Q8TD26) | inactive: 0.232
CHMP4A isoform 2 (UniProt Q9BY43) | inactive: 0.007
CHMP4B (UniProt Q9H444) | inactive: 0.014
CDK11B (UniProt P21127) | inactive: 0.072
CHMP3 (UniProt Q9Y3E7) | inactive: -0.088
CFAP298 (UniProt P57076) | inactive: 0.011
CETN2 (UniProt P41208) | inactive: -0.027
CHAC2 (UniProt Q8WUX2) | inactive: -0.03

Target | log2 fold change
CETN3 (UniProt O15182) | inactive: -0.1
CHD3 isoform 3 (UniProt Q12873) | inactive: 0.057
CFL2 (UniProt Q9Y281) | inactive: -0.03
CHEK2 isoform 9 (UniProt O96017) | inactive: -0.077
CFL1 (UniProt P23528) | inactive: -0.06
CDCP1 (UniProt Q9H5V8) | inactive: -0.039
CDS2 (UniProt O95674) | inactive: -0.023
CDC42BPA isoform 6 (UniProt Q5VT25) | inactive: -0.041
CEPT1 (UniProt Q9Y6K0) | inactive: -0.054
CHAMP1 (UniProt Q96JM3) | inactive: -0.051
CGGBP1 (UniProt Q9UFW8) | inactive: 0.046
CDK5RAP1 (UniProt Q96SZ6) | inactive: -0.023
CERS2 (UniProt Q96G23) | inactive: 0.027
CDK16 isoform 2 (UniProt Q00536) | active: 0.845
CDCA5 (UniProt Q96FF9) | inactive: -0.041
CHMP4C (UniProt Q96CF2) | inactive: -0.22
CELF2 isoform 3 (UniProt O95319) | inactive: 0.102
CERS5 (UniProt Q8N5B7) | inactive: -0.05
CDCA3 (UniProt Q99618) | inactive: -0.005
